Assay results taken from the supplement of paper PMC12067093, “Discovery and optimisation of a covalent ligand for TRIM25 and its application to targeted protein ubiquitination” (Chemical Science, 2025).
The other results are listed elsewhere or left out.

Protein sequences, listed by entry. Tags and fused reporters are not part of them. Lines headed by an entry give the natural chain unless they say otherwise; changes in a name come on top.
UniProt Q16531, whole entry, looked up: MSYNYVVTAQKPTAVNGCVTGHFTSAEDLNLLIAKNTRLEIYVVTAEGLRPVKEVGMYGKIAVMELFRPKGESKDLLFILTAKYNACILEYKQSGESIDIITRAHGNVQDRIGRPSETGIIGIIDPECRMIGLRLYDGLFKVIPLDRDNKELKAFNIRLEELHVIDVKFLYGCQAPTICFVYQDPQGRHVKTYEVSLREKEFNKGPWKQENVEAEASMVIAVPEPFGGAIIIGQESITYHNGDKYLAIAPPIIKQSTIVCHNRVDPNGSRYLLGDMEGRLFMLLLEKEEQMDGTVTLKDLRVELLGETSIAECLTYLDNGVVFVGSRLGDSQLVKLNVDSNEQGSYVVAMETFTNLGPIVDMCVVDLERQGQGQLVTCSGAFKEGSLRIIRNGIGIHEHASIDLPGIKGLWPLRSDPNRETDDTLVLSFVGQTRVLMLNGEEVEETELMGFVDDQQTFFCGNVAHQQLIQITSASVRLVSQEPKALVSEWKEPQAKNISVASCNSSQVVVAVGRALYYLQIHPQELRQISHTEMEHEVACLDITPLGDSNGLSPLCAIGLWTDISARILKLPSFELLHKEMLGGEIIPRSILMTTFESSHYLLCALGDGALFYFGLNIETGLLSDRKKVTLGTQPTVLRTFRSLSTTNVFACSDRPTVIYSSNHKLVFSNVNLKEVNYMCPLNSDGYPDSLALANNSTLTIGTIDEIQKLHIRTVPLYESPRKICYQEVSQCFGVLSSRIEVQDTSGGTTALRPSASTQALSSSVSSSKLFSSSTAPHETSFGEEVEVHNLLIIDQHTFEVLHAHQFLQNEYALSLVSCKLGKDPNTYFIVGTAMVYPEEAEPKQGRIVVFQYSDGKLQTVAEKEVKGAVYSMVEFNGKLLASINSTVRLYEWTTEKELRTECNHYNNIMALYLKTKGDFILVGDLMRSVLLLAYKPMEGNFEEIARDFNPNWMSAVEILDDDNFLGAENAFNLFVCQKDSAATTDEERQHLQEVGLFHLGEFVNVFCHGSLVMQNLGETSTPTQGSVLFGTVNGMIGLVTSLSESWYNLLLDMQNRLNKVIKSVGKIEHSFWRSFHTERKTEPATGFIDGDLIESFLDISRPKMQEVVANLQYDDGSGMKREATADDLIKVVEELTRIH
UniProt Q7Z3D6: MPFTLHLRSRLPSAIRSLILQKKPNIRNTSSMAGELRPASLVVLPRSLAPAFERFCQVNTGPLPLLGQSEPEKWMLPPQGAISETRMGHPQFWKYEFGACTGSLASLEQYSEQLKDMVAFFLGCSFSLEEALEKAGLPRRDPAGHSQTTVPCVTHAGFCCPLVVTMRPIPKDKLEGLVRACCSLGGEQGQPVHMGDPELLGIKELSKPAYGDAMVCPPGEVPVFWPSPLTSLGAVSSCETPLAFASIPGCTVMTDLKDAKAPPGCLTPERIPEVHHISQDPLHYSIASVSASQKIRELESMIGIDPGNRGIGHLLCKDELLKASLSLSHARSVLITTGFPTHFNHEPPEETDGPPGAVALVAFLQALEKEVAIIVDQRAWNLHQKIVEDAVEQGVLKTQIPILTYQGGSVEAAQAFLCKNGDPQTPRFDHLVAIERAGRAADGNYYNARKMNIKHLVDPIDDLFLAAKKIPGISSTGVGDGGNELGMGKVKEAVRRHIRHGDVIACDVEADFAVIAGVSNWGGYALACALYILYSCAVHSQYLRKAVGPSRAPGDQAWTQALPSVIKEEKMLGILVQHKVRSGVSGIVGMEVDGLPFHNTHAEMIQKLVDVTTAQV
UniProt Q9NR30: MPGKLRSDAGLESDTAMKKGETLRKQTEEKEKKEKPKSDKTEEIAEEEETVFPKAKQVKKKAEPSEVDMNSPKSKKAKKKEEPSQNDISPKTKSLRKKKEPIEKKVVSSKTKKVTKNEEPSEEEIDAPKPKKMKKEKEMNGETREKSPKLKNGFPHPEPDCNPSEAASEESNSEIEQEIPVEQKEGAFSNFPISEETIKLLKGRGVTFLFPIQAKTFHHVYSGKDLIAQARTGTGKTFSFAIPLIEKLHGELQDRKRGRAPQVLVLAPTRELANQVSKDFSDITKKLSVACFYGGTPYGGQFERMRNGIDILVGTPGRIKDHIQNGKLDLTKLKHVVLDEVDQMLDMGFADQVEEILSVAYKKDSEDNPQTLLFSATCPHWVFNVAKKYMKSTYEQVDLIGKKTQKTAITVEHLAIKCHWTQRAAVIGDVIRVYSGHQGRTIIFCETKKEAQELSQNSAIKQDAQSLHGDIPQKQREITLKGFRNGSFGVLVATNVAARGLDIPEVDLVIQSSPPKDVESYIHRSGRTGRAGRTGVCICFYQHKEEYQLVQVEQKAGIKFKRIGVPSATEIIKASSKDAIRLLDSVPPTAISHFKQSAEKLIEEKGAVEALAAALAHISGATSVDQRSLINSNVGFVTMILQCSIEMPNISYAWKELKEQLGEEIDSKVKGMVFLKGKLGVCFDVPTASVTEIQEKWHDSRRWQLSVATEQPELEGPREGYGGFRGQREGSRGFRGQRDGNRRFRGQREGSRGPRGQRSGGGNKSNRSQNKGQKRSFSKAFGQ
UniProt Q5VZ89: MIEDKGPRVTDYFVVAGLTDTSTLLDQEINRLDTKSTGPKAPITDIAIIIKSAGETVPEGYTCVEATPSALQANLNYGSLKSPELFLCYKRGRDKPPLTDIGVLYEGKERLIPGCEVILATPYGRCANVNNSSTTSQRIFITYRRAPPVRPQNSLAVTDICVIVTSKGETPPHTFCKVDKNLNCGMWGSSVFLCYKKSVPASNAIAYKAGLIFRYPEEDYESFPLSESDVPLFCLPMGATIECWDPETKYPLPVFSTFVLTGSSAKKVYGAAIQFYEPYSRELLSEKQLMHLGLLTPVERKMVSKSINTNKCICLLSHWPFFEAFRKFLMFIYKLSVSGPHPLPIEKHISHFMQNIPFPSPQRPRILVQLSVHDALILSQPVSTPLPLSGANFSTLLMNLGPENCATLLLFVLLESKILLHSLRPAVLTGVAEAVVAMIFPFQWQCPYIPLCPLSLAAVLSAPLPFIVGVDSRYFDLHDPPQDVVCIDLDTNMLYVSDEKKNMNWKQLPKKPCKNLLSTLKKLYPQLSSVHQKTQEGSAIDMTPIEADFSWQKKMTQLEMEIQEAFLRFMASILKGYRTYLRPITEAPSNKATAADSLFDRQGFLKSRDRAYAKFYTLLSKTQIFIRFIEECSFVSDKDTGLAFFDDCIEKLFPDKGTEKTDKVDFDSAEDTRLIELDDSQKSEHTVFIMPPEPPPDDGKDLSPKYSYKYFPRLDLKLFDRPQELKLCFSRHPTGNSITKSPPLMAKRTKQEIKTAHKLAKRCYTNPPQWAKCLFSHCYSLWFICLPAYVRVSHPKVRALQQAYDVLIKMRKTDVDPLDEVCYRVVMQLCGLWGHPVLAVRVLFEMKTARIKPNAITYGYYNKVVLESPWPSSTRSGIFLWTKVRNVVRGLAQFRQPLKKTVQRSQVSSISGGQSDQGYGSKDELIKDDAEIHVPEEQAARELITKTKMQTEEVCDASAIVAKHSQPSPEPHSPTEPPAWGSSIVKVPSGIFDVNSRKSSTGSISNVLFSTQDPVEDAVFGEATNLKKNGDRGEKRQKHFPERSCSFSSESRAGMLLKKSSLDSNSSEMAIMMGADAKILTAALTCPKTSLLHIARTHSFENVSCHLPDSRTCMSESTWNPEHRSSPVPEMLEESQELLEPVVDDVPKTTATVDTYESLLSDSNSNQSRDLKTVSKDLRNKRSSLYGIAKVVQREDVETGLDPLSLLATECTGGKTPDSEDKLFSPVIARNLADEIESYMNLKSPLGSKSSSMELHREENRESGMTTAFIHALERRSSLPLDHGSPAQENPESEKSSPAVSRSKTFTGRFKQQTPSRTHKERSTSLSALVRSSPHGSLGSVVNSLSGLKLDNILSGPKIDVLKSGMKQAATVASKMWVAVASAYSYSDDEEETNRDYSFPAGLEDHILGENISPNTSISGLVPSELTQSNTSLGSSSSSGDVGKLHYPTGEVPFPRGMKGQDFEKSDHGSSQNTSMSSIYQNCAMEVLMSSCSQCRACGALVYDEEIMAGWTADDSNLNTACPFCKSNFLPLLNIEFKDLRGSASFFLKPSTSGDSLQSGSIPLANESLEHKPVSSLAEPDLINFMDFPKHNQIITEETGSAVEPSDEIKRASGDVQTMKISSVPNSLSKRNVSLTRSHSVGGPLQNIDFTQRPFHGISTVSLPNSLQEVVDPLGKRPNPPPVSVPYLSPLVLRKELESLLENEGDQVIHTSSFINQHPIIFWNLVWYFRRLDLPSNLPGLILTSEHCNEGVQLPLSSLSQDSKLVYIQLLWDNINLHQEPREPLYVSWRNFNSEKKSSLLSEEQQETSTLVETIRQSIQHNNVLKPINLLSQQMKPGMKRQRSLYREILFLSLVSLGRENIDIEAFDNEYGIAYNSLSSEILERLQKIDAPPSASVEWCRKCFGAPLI
UniProt Q9UJV9: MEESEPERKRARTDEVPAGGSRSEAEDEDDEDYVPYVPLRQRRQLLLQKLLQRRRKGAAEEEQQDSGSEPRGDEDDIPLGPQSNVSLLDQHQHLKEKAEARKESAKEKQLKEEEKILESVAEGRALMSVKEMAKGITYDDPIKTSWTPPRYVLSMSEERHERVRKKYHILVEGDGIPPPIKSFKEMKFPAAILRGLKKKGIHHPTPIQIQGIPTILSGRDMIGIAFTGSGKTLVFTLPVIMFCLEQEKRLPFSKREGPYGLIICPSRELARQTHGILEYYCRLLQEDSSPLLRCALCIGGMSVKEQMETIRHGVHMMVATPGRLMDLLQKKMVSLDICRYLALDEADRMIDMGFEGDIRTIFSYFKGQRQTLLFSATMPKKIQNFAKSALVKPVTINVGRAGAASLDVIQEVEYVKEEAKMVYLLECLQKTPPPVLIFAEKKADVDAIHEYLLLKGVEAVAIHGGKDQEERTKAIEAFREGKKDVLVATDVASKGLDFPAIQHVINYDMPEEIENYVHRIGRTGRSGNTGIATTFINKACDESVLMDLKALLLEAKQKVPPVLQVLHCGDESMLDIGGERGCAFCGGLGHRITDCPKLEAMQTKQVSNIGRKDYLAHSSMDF
UniProt Q9H8H2: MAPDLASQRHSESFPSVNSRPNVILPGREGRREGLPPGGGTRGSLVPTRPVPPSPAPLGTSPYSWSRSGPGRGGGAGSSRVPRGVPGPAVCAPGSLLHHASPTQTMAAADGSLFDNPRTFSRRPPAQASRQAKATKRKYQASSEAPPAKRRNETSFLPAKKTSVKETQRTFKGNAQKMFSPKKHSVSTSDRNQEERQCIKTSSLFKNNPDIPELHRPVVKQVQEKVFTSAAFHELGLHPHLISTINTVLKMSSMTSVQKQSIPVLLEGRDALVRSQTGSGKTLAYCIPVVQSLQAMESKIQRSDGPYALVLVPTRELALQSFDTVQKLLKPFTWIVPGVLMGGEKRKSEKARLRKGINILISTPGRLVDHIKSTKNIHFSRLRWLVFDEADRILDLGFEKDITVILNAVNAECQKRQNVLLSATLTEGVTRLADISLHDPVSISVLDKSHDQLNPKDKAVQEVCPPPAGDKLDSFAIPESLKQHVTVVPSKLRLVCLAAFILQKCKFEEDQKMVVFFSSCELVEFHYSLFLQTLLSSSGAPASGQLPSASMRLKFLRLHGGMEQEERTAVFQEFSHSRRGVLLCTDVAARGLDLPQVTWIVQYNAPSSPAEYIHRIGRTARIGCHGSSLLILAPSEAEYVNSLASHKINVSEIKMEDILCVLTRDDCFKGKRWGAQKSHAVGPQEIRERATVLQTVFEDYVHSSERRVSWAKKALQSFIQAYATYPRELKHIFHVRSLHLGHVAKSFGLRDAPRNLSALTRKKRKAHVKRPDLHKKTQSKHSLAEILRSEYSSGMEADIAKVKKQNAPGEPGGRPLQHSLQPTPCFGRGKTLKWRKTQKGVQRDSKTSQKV

Compound: Cc1cc(ccc1-c1ccccc1)C(=O)N1CCCN(CC1)C(=O)CCl [compound 10]
Assay: probe-labelled cysteine peptide fold change vs DMSO (competition) (log2 fold change); higher = less target engagement (more negative = stronger competition)
Details: THP-1, incubation time: 4 h
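Further: competitive profiling in live THP-1 cells: cysteine peptides tagged with an iodoacetamide desthiobiotin (IA-DTB) probe, intensity after compound treatment relative to DMSO-treated cells.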

Target	probe-labelled cysteine peptide fold change (10 µM)	probe-labelled cysteine peptide fold change (50 µM)
DENND1A_Q8TEH3_338_IEPEEPITFCEEAFVSHYR (UniProt Q8TEH3)	-0.218	-0.462
DDB1_Q16531_378_QGQGQLVTCSGAFK (UniProt Q16531)	0.138	0.15
DGLUCY_Q7Z3D6-2_165_TTVPCVTHAGFCCPLVVTMRPIPK (UniProt Q7Z3D6)	0.017	-0.4
DENND4B_O75064_815_VVLPDEVCYR (UniProt O75064)	-0.158	0.0606
DGLUCY_Q7Z3D6_316_GIGHLLCK (UniProt Q7Z3D6)	-0.0414	0.0827
DDX27_Q96GQ7_261_DICACAATGTGK (UniProt Q96GQ7)	0.0612	-0.14
DENND3_A2RUS2_91_TYGVVAQYYRPLHDEYCFYNGK (UniProt A2RUS2)	-0.0563	-0.429
DDX21_Q9NR30_291_LSVACFYGGTPYGGQFER (UniProt Q9NR30)	0.173	0.193
DENND4C_Q5VZ89_1113_TCMSESTWNPEHR (UniProt Q5VZ89)	-0.0425	-0.0779
DDX50_Q9BQ39_633_GNMGVCFDVPTTESER (UniProt Q9BQ39)	-0.00706	-0.272
DDB1_Q16531_903_TECNHYNNIMALYLK (UniProt Q16531)	-0.0989	0.0912
DDX41_Q9UJV9_264_EGPYGLIICPSR (UniProt Q9UJV9)	-0.156	-0.423
DDX31_Q9H8H2_584_GVLLCTDVAAR (UniProt Q9H8H2)	0.108	-0.0465
DDX1_Q92499_631_VWYHVCSSR (UniProt Q92499)	0.0796	0.0965

2 entries drawn at random from the list so far:
Target	probe-labelled cysteine peptide fold change (10 µM)	probe-labelled cysteine peptide fold change (50 µM)
DDB1_Q16531_903_TECNHYNNIMALYLK (UniProt Q16531)	-0.0989	0.0912
DENND4C_Q5VZ89_1113_TCMSESTWNPEHR (UniProt Q5VZ89)	-0.0425	-0.0779
